Data published in article doi:10.1101/2024.12.04.624804.
These are yes or no findings as the source states them, for the method shown. Binding seen in cells or lysates may run through a third protein. Some entries that bind do so weakly or less than the wild type.

By UniProt entry, the sequences of proteins in these tests, tags left out. Where a name states a change or a piece, a line headed by the entry shows the natural chain unless it says otherwise. Chains listed by the source or under a name are the forms on record and can include a tag or linker.
Flag-tagged E3 ubiquitin-protein ligase Itchy homolog (ITCH) (Q96J02, form named): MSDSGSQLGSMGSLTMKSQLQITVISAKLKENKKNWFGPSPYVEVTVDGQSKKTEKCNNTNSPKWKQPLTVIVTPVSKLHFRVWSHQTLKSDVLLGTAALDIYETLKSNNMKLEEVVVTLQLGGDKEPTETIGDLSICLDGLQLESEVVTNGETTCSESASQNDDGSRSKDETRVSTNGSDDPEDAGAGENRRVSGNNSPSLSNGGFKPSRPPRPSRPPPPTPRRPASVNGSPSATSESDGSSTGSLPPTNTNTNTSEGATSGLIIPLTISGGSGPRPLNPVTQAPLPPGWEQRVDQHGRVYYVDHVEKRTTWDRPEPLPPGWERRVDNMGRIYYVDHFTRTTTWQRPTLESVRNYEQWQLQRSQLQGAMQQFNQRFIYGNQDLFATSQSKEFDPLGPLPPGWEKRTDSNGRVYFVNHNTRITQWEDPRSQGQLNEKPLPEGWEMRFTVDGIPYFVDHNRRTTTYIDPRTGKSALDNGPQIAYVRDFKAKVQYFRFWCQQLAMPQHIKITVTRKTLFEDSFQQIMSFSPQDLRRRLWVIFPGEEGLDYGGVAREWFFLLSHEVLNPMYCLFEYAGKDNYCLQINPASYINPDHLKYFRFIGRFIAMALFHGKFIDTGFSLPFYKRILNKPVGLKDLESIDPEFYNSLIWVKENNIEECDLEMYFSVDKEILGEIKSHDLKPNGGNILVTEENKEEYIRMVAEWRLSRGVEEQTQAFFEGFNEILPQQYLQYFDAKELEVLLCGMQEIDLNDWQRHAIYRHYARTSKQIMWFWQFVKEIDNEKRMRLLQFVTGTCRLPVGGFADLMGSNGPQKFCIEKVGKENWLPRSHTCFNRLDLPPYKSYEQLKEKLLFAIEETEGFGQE

How the values were obtained:
[1] = molecular target: Flag-tagged SARS-CoV-2 envelope protein E (SARS-CoV-2) (UniProt P0DTC4); assay: co-IP
[2] = molecular target: Flag-tagged E3 ubiquitin-protein ligase Itchy homolog (ITCH) (human) (UniProt Q96J02); assay: co-IP

| Substance | binding [1] | binding [2] |
| --- | --- | --- |
| ubiquitinated s-tag-fused SARS-CoV-2 membrane protein M (from UniProt P0DTC5 1-222) | binds | – |
| s-tag-fused SARS-CoV-2 envelope protein E (from UniProt P0DTC4 1-75) | – | binds |
| s-tag-fused SARS-CoV-2 membrane protein M (from UniProt P0DTC5 1-222) | binds | binds |
